In article doi:10.1101/2020.12.02.409078:
No constants are given. Whether binding was seen depends on the method and setting. Binding seen in cells or lysates may run through a third protein. Some binding calls cover weakened binding; strength is not graded here.

The chains behind the UniProt entries cited, without tags or fusion partners.
UniProt P70168: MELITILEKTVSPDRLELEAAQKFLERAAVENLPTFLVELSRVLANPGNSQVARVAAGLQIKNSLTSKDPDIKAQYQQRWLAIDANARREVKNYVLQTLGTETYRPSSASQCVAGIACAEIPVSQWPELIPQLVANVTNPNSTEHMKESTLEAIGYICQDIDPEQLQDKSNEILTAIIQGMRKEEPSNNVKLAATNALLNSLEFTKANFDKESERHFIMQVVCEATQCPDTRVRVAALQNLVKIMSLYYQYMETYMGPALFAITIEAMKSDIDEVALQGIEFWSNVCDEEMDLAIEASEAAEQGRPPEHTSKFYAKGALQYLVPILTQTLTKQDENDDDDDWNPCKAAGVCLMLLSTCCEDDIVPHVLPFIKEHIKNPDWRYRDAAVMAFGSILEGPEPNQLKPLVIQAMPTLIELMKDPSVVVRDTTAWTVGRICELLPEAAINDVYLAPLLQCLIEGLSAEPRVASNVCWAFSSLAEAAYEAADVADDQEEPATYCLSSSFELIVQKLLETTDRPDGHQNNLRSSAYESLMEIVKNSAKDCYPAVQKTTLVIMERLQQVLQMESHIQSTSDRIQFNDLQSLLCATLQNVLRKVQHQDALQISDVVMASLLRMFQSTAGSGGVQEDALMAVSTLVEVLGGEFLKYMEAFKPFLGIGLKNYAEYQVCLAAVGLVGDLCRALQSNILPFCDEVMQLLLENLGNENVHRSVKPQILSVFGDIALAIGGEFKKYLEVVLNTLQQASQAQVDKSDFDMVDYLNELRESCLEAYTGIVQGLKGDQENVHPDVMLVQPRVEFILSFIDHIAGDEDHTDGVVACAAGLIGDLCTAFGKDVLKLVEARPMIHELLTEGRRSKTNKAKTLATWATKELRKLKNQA
UniProt Q62433: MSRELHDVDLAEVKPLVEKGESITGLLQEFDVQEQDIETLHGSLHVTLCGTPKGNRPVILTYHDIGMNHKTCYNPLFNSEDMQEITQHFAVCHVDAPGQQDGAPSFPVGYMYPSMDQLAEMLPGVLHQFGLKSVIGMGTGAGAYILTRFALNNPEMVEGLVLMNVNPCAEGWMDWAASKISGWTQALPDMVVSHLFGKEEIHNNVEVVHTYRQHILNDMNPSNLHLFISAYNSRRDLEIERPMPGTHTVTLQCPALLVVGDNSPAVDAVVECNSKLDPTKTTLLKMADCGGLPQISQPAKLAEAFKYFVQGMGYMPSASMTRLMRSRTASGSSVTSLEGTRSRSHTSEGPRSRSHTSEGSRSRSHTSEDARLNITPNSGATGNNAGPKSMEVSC
UniProt O35343: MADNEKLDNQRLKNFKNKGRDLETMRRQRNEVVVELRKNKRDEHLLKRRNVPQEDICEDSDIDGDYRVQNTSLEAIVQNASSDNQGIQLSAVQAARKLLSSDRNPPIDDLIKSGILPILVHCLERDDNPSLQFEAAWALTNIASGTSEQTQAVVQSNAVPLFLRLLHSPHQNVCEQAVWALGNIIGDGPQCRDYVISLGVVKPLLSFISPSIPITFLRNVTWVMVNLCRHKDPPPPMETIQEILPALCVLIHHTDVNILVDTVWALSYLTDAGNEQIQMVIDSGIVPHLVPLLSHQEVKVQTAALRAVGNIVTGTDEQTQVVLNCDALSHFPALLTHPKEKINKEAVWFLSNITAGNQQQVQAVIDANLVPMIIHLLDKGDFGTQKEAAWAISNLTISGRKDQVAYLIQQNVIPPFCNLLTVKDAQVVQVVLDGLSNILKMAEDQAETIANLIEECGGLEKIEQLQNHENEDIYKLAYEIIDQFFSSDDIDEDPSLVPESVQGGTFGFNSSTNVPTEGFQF
UniProt O35344: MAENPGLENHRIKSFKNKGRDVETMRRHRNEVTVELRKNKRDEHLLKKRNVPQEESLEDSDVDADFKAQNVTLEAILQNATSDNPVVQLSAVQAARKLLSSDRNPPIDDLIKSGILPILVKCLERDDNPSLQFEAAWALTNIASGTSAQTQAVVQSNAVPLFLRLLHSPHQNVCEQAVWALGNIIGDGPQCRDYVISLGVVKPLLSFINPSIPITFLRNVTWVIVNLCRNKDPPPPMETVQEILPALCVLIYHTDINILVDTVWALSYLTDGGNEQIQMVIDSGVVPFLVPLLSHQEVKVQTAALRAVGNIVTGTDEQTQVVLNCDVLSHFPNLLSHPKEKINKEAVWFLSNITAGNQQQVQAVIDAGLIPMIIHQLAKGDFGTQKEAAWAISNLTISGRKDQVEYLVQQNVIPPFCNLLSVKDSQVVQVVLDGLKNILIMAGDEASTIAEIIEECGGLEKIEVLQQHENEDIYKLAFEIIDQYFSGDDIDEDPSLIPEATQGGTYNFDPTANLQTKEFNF
UniProt Q9EPL8: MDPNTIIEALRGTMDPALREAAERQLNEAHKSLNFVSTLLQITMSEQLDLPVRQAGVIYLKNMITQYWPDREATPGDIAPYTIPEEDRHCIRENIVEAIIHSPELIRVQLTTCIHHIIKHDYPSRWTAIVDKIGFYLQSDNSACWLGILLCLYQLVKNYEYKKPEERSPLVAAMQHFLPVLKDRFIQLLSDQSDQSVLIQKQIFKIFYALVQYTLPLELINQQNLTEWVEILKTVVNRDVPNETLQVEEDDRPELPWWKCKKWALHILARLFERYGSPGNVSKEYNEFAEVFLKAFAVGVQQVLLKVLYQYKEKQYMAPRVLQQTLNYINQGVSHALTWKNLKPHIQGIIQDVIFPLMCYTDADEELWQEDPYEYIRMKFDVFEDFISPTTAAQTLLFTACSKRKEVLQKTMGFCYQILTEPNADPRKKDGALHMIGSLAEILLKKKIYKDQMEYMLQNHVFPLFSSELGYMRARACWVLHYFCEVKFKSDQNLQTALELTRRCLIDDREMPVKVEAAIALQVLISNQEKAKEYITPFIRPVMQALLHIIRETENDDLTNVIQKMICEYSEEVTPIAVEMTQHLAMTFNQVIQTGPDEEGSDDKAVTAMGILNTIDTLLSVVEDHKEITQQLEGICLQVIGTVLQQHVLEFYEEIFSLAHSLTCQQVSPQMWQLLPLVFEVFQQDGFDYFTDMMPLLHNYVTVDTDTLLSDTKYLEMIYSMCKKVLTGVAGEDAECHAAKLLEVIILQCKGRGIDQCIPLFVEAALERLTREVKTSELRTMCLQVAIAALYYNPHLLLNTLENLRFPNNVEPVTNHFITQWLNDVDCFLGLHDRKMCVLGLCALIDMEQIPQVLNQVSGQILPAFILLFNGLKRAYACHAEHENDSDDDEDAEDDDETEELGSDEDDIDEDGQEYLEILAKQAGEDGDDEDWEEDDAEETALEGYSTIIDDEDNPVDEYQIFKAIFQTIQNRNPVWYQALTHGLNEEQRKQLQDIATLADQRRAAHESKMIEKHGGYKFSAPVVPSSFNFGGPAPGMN
UniProt Q60960: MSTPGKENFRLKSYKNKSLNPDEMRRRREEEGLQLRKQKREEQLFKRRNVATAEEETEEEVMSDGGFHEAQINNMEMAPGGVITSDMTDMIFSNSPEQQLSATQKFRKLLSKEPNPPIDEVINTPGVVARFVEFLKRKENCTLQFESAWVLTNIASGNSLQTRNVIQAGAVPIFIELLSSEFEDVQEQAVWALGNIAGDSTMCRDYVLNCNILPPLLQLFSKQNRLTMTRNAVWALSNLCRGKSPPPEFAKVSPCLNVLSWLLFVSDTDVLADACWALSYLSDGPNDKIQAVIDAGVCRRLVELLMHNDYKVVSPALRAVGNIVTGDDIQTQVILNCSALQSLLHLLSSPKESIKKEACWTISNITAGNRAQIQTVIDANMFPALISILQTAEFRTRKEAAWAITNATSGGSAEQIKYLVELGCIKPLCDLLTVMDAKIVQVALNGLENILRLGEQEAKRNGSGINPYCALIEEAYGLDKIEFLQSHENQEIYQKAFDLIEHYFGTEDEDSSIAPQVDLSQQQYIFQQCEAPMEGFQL

Key:
[1] = target: importin-β1 (mouse (endogenous in forebrain synaptosomes)) (UniProt P70168); test: co-IP
[2] = target: N-myc downstream regulated gene1 (NDRG1) (mouse (endogenous in forebrain synaptosomes)) (UniProt Q62433); test: co-IP

Substance	binding [1]	binding [2]
Imp-α4 (from UniProt O35343 1-521)	binds	
importin-β1 (from UniProt P70168 1-876)		binds
Imp-α3 (from UniProt O35344 1-521)	binds	
importin-7 (from UniProt Q9EPL8 1-1038)	binds	
Imp-α1 (from UniProt Q60960 1-538)	binds	
Imp-α6 (from UniProt O35345 1-536)	binds	
